Experimental data published in publication PMC10683620.
No constants are given. Whether binding was seen depends on the method and setting. In cells and extracts the contact can be indirect. Some entries that bind do so weakly or less than the wild type.

The chains behind the UniProt entries cited, without tags or fusion partners.
UniProt Q96GD4: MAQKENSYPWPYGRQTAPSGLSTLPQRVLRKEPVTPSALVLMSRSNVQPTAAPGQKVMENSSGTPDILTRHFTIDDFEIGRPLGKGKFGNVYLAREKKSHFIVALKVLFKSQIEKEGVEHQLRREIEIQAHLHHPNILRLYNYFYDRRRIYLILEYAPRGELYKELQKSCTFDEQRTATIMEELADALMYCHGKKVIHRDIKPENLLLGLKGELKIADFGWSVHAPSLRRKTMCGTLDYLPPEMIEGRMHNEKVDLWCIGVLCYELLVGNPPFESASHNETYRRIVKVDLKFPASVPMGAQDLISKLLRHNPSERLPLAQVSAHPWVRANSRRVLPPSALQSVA

Molecular target: T1, Kinesin-like protein KIFC1 (human (endogenous in EC109)) (UniProt Q9BW19)
T1 sequence: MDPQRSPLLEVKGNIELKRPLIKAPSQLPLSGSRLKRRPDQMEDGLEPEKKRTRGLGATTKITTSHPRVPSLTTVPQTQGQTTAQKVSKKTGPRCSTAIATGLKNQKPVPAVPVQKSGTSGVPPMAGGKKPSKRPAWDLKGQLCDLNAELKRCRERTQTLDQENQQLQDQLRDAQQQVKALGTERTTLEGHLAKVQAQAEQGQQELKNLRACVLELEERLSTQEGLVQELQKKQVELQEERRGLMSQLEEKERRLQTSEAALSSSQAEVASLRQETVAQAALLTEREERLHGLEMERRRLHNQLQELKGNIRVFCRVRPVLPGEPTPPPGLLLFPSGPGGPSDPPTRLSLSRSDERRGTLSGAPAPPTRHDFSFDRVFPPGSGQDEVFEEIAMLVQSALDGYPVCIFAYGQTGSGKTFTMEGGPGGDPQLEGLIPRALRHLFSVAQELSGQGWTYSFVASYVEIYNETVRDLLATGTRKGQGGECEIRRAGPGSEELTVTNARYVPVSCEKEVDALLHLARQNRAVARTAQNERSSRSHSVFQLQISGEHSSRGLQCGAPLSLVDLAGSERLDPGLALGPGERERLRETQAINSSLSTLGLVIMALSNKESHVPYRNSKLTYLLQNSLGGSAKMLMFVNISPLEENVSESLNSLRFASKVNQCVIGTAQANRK
Experiment: co-IP; Immunoprecipitation with anti KIFC1 antibody, Aurora B detected by western blot; metaphase cells compared with other cells

binding: binds
Substance: Aurora B kinase (from UniProt Q96GD4 1-344) (enzyme)
